The list shows a part of the results.
Tests used:
Experiment in all cases: log2 fold change, soluble protein after heating vs DMSO (PISA); higher = thermal stabilisation; K562 lysate, 10 uM; active = over 0.2 and 3.5 SD of the protein, either way, in both replicates (recomputed)
erlotinib = compound: C#Cc1cccc(Nc2ncnc3cc(OCCOC)c(OCCOC)cc23)c1 [erlotinib]
Method in brief: (§1)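 Following dounce homogenisation of K562 pellets in PBS pH 7.4 with 1 mM MgCl2, crude extract at 1 mg/mL protein was incubated for 30 min with 10 μM compound. Aliquots were then heated for 3 min over 48°C-58°C and pooled, NP-40 was added to 0.5% at 4°C, and soluble protein was recovered as the supernatant at 21,000xg for 90 min. Channel-sum-equalised TMTpro 16plex LC-MS/MS quantified this protein. Each value, from duplicates, is a log-two fold change in thermal stability relative to solvent controls.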

The chains behind the UniProt entries cited, without tags or fusion partners. Where a name states a change or a piece, a line headed by the entry shows the natural chain unless it says otherwise.
UniProt Q8N1F7: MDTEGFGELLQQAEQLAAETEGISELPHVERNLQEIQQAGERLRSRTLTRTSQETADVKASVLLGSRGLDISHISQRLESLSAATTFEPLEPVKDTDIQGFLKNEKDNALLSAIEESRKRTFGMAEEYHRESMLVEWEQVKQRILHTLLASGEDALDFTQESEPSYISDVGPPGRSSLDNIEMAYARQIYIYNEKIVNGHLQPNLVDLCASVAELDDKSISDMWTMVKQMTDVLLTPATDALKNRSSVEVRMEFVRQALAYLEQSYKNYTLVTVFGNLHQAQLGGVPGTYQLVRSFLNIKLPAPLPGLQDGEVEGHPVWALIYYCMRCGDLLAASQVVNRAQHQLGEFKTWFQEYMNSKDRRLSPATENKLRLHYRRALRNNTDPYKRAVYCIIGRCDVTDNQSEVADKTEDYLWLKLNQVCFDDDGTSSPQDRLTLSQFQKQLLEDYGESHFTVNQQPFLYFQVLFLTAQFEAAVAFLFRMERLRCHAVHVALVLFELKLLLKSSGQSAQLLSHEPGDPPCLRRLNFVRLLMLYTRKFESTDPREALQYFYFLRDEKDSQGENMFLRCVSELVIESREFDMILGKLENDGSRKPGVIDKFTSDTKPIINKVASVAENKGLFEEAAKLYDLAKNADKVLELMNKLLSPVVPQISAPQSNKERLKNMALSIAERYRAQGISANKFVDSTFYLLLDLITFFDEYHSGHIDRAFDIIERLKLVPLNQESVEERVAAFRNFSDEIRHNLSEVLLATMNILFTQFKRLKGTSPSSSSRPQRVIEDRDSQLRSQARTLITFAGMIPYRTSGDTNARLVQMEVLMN
UniProt Q96SU4: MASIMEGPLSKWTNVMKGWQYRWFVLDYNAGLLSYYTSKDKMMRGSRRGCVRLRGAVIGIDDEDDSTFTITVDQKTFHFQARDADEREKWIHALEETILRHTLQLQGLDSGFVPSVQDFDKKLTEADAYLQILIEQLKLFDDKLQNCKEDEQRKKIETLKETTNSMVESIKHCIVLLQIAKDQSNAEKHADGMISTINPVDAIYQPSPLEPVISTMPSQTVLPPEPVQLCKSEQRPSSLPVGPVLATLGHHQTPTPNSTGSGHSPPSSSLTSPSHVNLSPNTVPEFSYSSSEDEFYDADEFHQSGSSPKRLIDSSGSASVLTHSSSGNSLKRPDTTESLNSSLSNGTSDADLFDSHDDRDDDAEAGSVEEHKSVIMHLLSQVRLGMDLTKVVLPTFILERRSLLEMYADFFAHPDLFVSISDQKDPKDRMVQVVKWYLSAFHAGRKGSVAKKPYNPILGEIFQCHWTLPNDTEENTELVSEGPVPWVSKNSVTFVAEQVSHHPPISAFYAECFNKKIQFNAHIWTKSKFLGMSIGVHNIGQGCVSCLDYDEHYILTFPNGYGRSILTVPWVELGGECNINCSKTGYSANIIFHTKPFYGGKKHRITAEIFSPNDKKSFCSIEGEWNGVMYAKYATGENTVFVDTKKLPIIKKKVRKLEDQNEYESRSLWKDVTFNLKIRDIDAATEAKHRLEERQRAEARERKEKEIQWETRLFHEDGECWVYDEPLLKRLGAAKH
UniProt Q32P28: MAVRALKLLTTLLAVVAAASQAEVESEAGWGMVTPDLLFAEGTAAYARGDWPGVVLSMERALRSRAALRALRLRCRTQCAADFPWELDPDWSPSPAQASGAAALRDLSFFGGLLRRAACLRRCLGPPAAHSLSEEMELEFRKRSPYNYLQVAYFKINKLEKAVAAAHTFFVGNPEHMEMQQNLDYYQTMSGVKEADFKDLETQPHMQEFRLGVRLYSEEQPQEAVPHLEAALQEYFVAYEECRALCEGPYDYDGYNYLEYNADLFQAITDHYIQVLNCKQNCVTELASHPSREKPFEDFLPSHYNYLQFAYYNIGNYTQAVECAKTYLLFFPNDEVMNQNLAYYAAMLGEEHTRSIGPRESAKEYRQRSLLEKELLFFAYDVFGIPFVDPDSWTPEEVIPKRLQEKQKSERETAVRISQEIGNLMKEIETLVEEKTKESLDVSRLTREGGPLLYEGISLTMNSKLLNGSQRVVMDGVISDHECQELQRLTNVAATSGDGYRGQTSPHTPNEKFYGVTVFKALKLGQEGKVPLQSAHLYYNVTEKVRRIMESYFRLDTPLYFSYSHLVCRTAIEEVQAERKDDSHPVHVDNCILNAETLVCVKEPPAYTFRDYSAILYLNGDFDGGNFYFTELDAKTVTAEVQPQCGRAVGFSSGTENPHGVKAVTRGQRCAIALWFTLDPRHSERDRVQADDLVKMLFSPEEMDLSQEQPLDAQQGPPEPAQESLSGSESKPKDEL
UniProt P07237: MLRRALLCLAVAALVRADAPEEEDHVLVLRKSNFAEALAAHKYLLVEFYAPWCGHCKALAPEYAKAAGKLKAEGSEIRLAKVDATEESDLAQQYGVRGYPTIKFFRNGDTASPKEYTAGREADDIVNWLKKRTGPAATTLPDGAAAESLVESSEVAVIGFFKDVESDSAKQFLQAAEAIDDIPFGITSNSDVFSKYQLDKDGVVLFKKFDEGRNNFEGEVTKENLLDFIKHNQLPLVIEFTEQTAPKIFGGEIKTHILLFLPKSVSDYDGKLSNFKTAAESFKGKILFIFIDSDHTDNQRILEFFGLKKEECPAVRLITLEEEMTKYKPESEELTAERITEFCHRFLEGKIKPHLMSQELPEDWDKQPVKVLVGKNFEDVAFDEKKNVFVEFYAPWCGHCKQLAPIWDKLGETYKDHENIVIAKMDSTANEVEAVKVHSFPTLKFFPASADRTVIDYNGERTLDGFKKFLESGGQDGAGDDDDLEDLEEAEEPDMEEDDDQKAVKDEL
UniProt Q86W56: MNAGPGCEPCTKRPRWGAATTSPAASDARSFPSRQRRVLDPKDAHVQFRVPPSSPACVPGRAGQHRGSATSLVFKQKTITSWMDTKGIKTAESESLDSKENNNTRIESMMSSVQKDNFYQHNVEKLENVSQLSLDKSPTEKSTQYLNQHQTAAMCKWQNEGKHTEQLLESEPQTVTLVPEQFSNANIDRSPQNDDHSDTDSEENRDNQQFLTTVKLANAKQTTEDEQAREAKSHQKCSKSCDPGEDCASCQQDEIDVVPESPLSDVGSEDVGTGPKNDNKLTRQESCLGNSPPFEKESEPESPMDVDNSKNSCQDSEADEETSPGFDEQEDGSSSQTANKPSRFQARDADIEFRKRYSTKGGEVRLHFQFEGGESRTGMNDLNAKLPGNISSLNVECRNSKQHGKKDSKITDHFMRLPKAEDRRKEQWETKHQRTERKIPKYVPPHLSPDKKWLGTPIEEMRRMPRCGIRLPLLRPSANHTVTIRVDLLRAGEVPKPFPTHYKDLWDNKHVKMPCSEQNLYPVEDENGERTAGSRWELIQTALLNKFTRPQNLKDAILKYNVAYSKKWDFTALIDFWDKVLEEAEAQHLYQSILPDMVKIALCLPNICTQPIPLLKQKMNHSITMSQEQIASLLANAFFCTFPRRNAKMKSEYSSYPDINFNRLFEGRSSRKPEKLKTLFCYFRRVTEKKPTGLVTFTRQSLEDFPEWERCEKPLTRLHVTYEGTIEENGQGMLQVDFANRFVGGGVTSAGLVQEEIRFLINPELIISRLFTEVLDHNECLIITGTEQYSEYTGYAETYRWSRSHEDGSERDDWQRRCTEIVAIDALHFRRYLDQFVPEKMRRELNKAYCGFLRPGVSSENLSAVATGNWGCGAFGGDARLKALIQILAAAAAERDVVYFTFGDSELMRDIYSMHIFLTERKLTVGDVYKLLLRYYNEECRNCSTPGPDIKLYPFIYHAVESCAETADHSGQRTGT
UniProt Q9BVL2: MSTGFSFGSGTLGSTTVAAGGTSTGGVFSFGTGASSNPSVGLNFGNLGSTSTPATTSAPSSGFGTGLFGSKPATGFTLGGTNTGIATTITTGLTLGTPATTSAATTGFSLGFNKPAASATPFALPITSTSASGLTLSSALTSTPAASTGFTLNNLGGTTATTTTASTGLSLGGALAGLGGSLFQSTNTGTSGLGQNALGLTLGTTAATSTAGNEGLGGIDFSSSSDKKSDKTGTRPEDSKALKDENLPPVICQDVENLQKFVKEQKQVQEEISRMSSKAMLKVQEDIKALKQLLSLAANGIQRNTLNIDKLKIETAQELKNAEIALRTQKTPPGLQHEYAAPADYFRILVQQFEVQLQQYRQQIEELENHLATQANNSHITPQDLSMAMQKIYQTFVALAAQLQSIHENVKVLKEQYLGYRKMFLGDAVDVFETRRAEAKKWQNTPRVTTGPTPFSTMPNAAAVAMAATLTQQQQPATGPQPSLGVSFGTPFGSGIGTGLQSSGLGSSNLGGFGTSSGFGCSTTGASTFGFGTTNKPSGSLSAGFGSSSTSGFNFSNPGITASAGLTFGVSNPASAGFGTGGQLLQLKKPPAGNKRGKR
UniProt P51003: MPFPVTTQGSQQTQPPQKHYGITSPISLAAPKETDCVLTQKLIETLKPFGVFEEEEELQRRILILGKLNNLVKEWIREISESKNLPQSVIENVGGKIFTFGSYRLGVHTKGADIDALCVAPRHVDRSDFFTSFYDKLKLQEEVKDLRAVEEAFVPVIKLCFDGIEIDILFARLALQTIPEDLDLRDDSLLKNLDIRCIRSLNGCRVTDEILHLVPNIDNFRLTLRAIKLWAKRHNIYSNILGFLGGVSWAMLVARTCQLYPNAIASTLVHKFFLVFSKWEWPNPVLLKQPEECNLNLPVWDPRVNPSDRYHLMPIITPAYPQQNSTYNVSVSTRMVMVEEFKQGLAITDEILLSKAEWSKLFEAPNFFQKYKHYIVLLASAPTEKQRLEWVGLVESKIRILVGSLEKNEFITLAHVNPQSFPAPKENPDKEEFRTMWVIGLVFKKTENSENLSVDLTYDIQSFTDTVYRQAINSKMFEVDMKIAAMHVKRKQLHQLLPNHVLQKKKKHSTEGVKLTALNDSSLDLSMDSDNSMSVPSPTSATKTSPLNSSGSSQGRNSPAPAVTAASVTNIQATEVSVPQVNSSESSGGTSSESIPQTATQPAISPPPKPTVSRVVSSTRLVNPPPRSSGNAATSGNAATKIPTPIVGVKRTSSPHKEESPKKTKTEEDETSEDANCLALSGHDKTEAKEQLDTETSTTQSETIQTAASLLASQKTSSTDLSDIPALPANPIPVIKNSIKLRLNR
UniProt Q12769: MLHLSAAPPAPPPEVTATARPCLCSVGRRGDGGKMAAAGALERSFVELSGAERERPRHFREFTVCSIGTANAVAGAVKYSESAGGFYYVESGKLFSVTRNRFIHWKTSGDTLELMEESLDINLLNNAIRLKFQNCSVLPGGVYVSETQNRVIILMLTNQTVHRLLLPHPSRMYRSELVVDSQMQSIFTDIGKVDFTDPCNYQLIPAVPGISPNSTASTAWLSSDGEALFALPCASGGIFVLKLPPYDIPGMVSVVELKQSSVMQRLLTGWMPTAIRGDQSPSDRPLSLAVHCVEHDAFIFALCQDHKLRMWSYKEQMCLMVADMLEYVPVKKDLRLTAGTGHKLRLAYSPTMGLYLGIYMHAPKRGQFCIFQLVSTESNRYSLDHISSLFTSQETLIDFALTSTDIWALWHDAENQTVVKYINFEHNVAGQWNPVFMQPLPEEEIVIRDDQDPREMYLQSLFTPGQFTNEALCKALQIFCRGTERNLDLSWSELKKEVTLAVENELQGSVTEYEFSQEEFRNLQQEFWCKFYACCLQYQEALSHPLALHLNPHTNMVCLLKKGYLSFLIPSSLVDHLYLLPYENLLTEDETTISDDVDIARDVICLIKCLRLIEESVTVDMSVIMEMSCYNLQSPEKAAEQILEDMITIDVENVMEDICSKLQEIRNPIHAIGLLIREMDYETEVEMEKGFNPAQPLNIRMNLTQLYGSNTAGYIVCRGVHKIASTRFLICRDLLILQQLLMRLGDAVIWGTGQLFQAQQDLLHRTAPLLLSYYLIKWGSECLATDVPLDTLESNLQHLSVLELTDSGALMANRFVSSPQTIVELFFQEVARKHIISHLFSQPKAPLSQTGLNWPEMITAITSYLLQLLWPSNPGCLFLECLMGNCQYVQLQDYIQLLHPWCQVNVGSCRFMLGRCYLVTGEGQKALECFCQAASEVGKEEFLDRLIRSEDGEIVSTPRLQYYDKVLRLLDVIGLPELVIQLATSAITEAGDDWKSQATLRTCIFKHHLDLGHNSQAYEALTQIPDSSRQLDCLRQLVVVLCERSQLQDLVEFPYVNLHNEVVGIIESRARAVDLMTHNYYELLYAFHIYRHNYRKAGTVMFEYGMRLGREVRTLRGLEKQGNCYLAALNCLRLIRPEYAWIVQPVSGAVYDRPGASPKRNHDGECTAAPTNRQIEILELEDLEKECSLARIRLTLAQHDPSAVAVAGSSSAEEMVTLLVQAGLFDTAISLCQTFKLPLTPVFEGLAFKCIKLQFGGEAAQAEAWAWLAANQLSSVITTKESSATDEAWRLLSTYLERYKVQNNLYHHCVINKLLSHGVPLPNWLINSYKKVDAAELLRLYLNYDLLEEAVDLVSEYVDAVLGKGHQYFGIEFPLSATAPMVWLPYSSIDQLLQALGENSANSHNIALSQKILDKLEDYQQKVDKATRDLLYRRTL

[1] = compound: C/C(=N\NC(=O)C1=CC(=CC=C1)S(=O)(=O)N2CCOCC2)/C3=C(C=CC(=C3)Cl)O
Method in brief: as §1

[2] = compound: C1=CC(=CC=C1C2=NC3=C(N2)C=C(C=C3)C(=O)N)OC4=CC=C(C=C4)Cl
Method in brief: as §1

[3] = compound: C1=CC2=C(C=CC(=C2)/C=C\3/C(=O)NC(=NCC4=CC=CS4)S3)N=C1
Method in brief: as §1

[4] = compound: C1=CC2=NC=CN=C2C=C1/C=C/3\C(=O)NC(=O)S3
Method in brief: as §1

[5] = compound: C1=CC=C(C=C1)C2=NC(=C(N2)C3=CC=NC=C3)C4=CC(=C(C=C4)Cl)O
Method in brief: as §1

[6] = compound: C1=CC=C2C(=C1)C3=NNC4=CC=CC(=C43)C2=O
Method in brief: as §1

[7] = compound: C1CCN(C1)C(=O)NC2=CC=CC(=C2)NC3=NC=C(C(=N3)NCCC4=CN=CN4)Br
Method in brief: as §1

[8] = compound: C1CN(CCC1(CC2=CC=C(C=C2)Cl)N)C3=NC=NC4=C3C=CN4
Method in brief: as §1

IRAK-1-4 Inhibitor I = compound: C1COCCN1CCN2C3=CC=CC=C3N=C2NC(=O)C4=CC(=CC=C4)[N+](=O)[O-] [IRAK-1-4 Inhibitor I]
Method in brief: as §1

Measured: log2 fold change

NUP93 (UniProt Q8N1F7)
inactive: erlotinib 0.025 | [1] 0.058 | [2] -0.042 | [3] 0.021 | [4] 0.032 | [5] -0.022 | [6] -0.049 | [7] 0.002 | [8] 0.015 | IRAK-1-4 Inhibitor I -0.022

OTC (UniProt P00480)
inactive: erlotinib 0.09 | [1] 0.138 | [2] -0.096 | [3] -0.121 | [4] -0.049 | [5] -0.074 | [6] -0.069 | [7] -0.074 | [8] -0.095 | IRAK-1-4 Inhibitor I 0.125

OIP5 (UniProt O43482)
inactive: erlotinib 0.015 | [1] -0.073 | [2] -0.012 | [3] -0.005 | [4] -0.072 | [5] 0.059 | [6] 0.064 | [7] 0.032 | [8] 0.03 | IRAK-1-4 Inhibitor I 0.044

OSBPL9 isoform 2 (UniProt Q96SU4)
inactive: erlotinib 0.005 | [1] -0.029 | [2] 0.009 | [3] -0.033 | [4] 0.013 | [5] -0.056 | [6] -0.072 | [7] 0.015 | [8] 0.038 | IRAK-1-4 Inhibitor I 0.01

ORC2 (UniProt Q13416)
inactive: erlotinib -0.004 | [1] -0.006 | [2] -0.006 | [3] 0.009 | [4] 0.015 | [5] 0.006 | [6] -0.022 | [7] 0 | [8] -0.024 | IRAK-1-4 Inhibitor I -0.034

P3H1 (UniProt Q32P28)
inactive: erlotinib -0.02 | [1] 0.027 | [2] 0.015 | [3] -0.002 | [4] 0.002 | [5] -0.005 | [6] 0.01 | [7] 0.024 | [8] -0.009 | IRAK-1-4 Inhibitor I 0.013

OTULIN (UniProt Q96BN8)
inactive: erlotinib -0.021 | [1] -0.076 | [2] -0.003 | [3] 0.016 | [4] -0.002 | [5] -0.027 | [6] -0.031 | [7] 0.012 | [8] -0.027 | IRAK-1-4 Inhibitor I 0.005

PAK1 (UniProt Q13153)
inactive: erlotinib 0.043 | [1] 0.018 | [2] 0.01 | [3] -0.017 | [4] 0.01 | [5] -0.014 | [6] 0.018 | [7] 0.028 | [8] 0.041 | IRAK-1-4 Inhibitor I -0.007

OTUD6B (UniProt Q8N6M0)
inactive: erlotinib 0.024 | [1] 0.04 | [2] 0.072 | [3] 0.034 | [4] 0.017 | [5] -0.006 | [6] -0.026 | [7] 0.009 | [8] 0.016 | IRAK-1-4 Inhibitor I -0.008

OPA1 isoform 2 (UniProt O60313)
inactive: erlotinib 0.003 | [1] 0.03 | [2] -0.078 | [3] 0.024 | [4] 0.01 | [5] -0.022 | [6] -0.026 | [7] -0.015 | [8] 0.021 | IRAK-1-4 Inhibitor I 0.003

OTUB1 (UniProt Q96FW1)
inactive: erlotinib -0.003 | [1] 0.037 | [2] 0.008 | [3] 0.005 | [4] 0.011 | [5] -0.002 | [6] 0.043 | [7] 0.028 | [8] 0.028 | IRAK-1-4 Inhibitor I 0.029

P4HB (UniProt P07237)
inactive: erlotinib -0.039 | [1] 0.022 | [2] 0.006 | [3] -0.009 | [4] -0.011 | [5] -0.002 | [6] 0.034 | [7] -0.001 | [8] -0.013 | IRAK-1-4 Inhibitor I -0.025

OSBPL8 (UniProt Q9BZF1)
inactive: erlotinib -0.003 | [1] 0.094 | [2] -0.056 | [3] -0.015 | [4] -0.052 | [5] -0.049 | [6] -0.085 | [7] -0.12 | [8] 0.021 | IRAK-1-4 Inhibitor I 0.03

PARL (UniProt Q9H300)
inactive: erlotinib 0.018 | [1] -0.138 | [2] -0.105 | [3] 0.002 | [4] 0.021 | [5] -0.014 | [6] -0.025 | [7] 0.017 | [8] 0.002 | IRAK-1-4 Inhibitor I -0.006

PAICS (UniProt E9PBS1)
inactive: erlotinib 0.017 | [1] 0.179 | [2] -0.012 | [3] -0.037 | [4] -0.044 | [5] -0.005 | [6] -0.012 | [7] -0.145 | [8] -0.204 | IRAK-1-4 Inhibitor I -0.014

PARG (UniProt Q86W56)
inactive: erlotinib 0.009 | [1] -0.013 | [2] -0.062 | [3] 0.008 | [4] -0.011 | [5] 0.004 | [6] -0.013 | [7] 0.003 | [8] -0.011 | IRAK-1-4 Inhibitor I 0.048

PAFAH1B2 (UniProt P68402)
inactive: erlotinib 0.051 | [1] -0.028 | [2] 0.001 | [3] -0.038 | [4] 0.032 | [5] 0.002 | [6] -0.022 | [7] -0.057 | [8] 0.044 | IRAK-1-4 Inhibitor I -0.013

OPTN (UniProt Q96CV9)
inactive: erlotinib -0.04 | [1] -0.004 | [2] 0.025 | [3] 0.007 | [4] -0.049 | [5] 0.037 | [6] 0.043 | [7] 0.04 | [8] 0.004 | IRAK-1-4 Inhibitor I -0.011

OSBPL11 (UniProt Q9BXB4)
inactive: erlotinib -0.001 | [1] 0.005 | [2] -0.019 | [3] -0.119 | [4] 0.026 | [5] -0.05 | [6] -0.062 | [7] -0.02 | [8] 0.077 | IRAK-1-4 Inhibitor I 0.004

PALMD (UniProt Q9NP74)
inactive: erlotinib -0.055 | [1] -0.006 | [2] -0.026 | [3] 0.07 | [4] 0.042 | [5] -0.057 | [6] 0.019 | [7] 0.009 | [8] -0.019 | IRAK-1-4 Inhibitor I -0.012

OXSM (UniProt Q9NWU1)
inactive: erlotinib -0.031 | [1] 0.013 | [2] 0.003 | [3] -0.014 | [4] 0.021 | [5] -0.008 | [6] 0.032 | [7] -0.009 | [8] 0.048 | IRAK-1-4 Inhibitor I 0.057

PANK1 (UniProt Q8TE04)
inactive: erlotinib -0.003 | [1] -0.048 | [2] 0.033 | [3] 0.026 | [4] 0.098 | [5] 0.015 | [6] -0.069 | [7] -0.036 | [8] 0.054 | IRAK-1-4 Inhibitor I -0.061

Quoted from the listing (2 entries):
OPTN (UniProt Q96CV9)
inactive: erlotinib -0.04 | [1] -0.004 | [2] 0.025 | [3] 0.007 | [4] -0.049 | [5] 0.037 | [6] 0.043 | [7] 0.04 | [8] 0.004 | IRAK-1-4 Inhibitor I -0.011

OSBPL11 (UniProt Q9BXB4)
inactive: erlotinib -0.001 | [1] 0.005 | [2] -0.019 | [3] -0.119 | [4] 0.026 | [5] -0.05 | [6] -0.062 | [7] -0.02 | [8] 0.077 | IRAK-1-4 Inhibitor I 0.004

(continued)

PAGR1 (UniProt Q9BTK6)
inactive: erlotinib -0.257 | [1] -0.002 | [2] 0.029 | [3] -0.043 | [4] 0.024 | [5] -0.082 | [6] 0.005 | [7] 0.041 | [8] -0.01 | IRAK-1-4 Inhibitor I 0.173

P4HA2 (UniProt O15460)
inactive: erlotinib 0.017 | [1] -0.126 | [2] -0.038 | [3] 0.027 | [4] -0.053 | [5] 0 | [6] -0.027 | [7] -0.028 | [8] 0.045 | IRAK-1-4 Inhibitor I 0.078

NUP58 (UniProt Q9BVL2)
inactive: erlotinib -0.006 | [1] -0.006 | [2] 0.004 | [3] -0.009 | [4] -0.028 | [5] -0.026 | [6] -0.046 | [7] 0.008 | [8] 0.02 | IRAK-1-4 Inhibitor I 0.034

PAPOLA (UniProt P51003)
inactive: erlotinib -0.004 | [1] -0.028 | [2] 0.016 | [3] -0.004 | [4] 0.006 | [5] 0.01 | [6] 0 | [7] -0.003 | [8] 0.019 | IRAK-1-4 Inhibitor I -0.018

PAGE5 (UniProt Q96GU1)
inactive: erlotinib 0.074 | [1] 0.05 | [2] -0.027 | [3] 0.034 | [4] -0.019 | [5] -0.049 | [6] 0.059 | [7] -0.074 | [8] -0.006 | IRAK-1-4 Inhibitor I -0.103

P4HA1 (UniProt P13674)
inactive: erlotinib -0.003 | [1] -0.024 | [2] -0.009 | [3] 0.008 | [4] -0.009 | [5] 0.008 | [6] -0.005 | [7] 0.023 | [8] 0.008 | IRAK-1-4 Inhibitor I -0.003

NUP160 (UniProt Q12769)
inactive: erlotinib 0.038 | [1] 0.041 | [2] -0.033 | [3] -0.006 | [4] 0.038 | [5] -0.012 | [6] -0.075 | [7] -0.029 | [8] 0.015 | IRAK-1-4 Inhibitor I -0.013
